# Experimental data as given in PubChem BioAssay AID1439 (NMMLSC, 2008).
# Chains of the proteins cited; added tags and fusions are not shown.
# UniProt P09471, whole entry, looked up: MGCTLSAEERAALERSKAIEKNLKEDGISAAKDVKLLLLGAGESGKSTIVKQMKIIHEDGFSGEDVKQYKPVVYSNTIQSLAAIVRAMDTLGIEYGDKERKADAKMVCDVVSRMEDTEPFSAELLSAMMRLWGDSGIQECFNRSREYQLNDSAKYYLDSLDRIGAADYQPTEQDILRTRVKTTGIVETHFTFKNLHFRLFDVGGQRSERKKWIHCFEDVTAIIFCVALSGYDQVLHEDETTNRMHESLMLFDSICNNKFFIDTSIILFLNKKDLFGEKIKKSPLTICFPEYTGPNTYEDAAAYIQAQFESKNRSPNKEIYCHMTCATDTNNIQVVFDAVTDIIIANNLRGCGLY
# Out of some 220,000 compounds screened, about 770 (0.35%) were called active. The inconclusive results got no clear call from the source; some entries with a clear call stand among them for comparison. Rule as the data show it: active = binding response below about 49% or above about 150%; inconclusive = no clear call, values can overlap the other calls; inactive = in between.
# Biological target: Guanine nucleotide-binding protein G(o) subunit alpha (Homo sapiens) (UniProt P09471)
# Test: RGS7-Galphao binding modulators, primary screen, biochemical, multiplexed bead flow cytometry (AID 1439);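 also: fluorescent Galphao held in activated GDP-AlF4 state binding bead-coupled RGS7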
# Settings: at 10 µM, actives lie on both sides
row,Compound,binding response (% of control)
1,N#C/C(=C\c1ccc(O)c(O)c1)C(=O)N1CCCC1,inconclusive: 96.5%
2,Cc1cc([N+](=O)[O-])nn1Cn1nc([N+](=O)[O-])cc1C,inconclusive: 102%
3,Cc1cccc(-c2nc3sc(C)cc3c(=O)o2)c1,inactive: 100%
4,COc1ccc(NC(=O)Cn2nc(Cc3cccnc3)c3ccccc3c2=O)c(OC)c1,inconclusive: 34.5%
5,CCOC(=O)C1CSC(CC(=O)Nc2ccc(OC(F)(F)F)cc2)C(=O)N1 (centres undefined),inconclusive: 168%
6,Cc1ccc(C)c(S(=O)(=O)N2CCN(CC(=O)NC(=O)NCc3ccco3)CC2)c1,inactive: 99.2%
7,CSc1ccccc1NC(=O)c1ccccc1C,inconclusive: 131%
8,COc1ccc(C(=O)NCCc2nnc(SCC(=O)Nc3ccccc3F)n2C)cc1,active: 166% [activator]
9,Cc1cc(-c2ccc(NC(=O)[C@@H]3CCCC[C@@H]3C(=O)O)c(C)c2)ccc1NC(=O)[C@@H]1CCCC[C@@H]1C(=O)O,inconclusive: 112%
10,CNc1nc(C)c(C(C)(C)C)s1,inconclusive: 92.1%
11,Cn1cccc1C(=O)OCC(=O)NC(=O)NC1CCCCC1,inconclusive: 118%
12,CC1(NC(=S)NCCCCCCNC(=S)NC2(C)CCS(=O)(=O)C2)CCS(=O)(=O)C1 (centres undefined),inconclusive: 82.3%
13,Cc1cccc(OCCCn2c(CO)nc3ccccc32)c1,inconclusive: 96.1%
14,COCCN1Cc2cccc(C(=O)Nc3ccc(S(=O)(=O)N4CCCCC4)cc3)c2C1=O,inconclusive: 73.1%
15,COC(=O)c1cc(NS(=O)(=O)c2cccc(Cl)c2)ccc1N1CCOCC1,inconclusive: 94.5%
16,CN(C)CCCNC(NC(=O)/C=C/c1ccccc1)C(Cl)(Cl)Cl (centres undefined),inconclusive: 10.3%
17,O=C(Cc1cccs1)N/N=C/c1ccccn1,inconclusive: 94.9%
18,CC(C)COc1ncnc2c1sc1nc3c(cc12)COC(C)(C)C3,inconclusive: 437%
19,Cc1ccccc1C(=O)Nc1nnc(-c2ccco2)o1,inconclusive: 108%
20,Cc1cccc(C)c1OCC(O)CN1CCN(c2ccccc2)CC1 (centres undefined),inconclusive: 109%
21,CC(C)(C)C(=O)Cn1ncc(Br)c(Br)c1=O,inactive: 85.9%
22,COC(=O)c1sccc1N/N=C/c1cccc(Oc2ccccc2)c1,inactive: 100%
23,Cc1nc2cccnc2nc1C,inconclusive: 104%

# Some of these compounds in order of number of heavy atoms, largest number first:
row,Compound,binding response (% of control)
14,COCCN1Cc2cccc(C(=O)Nc3ccc(S(=O)(=O)N4CCCCC4)cc3)c2C1=O,inconclusive: 73.1%
6,Cc1ccc(C)c(S(=O)(=O)N2CCN(CC(=O)NC(=O)NCc3ccco3)CC2)c1,inactive: 99.2%
17,O=C(Cc1cccs1)N/N=C/c1ccccn1,inconclusive: 94.9%

# Remaining list, next part

row,Compound,binding response (% of control)
1,C/C=C(/C)C(=O)Nc1cccc(C2=NOC3(C2)C[C@@H](C(N)=O)N(C(=O)c2ccc(OC)cc2)C3)c1 (some centres undefined),inconclusive: 108%
2,CCCS(=O)(=O)N1CCCC(C(=O)NCC(OC)OC)C1 (centres undefined),inactive: 102%
3,COc1ccc(NS(=O)(=O)c2ccc(O)c(NC(=O)c3cc4c(C)nn(-c5ccc(F)cc5)c4s3)c2)cc1,inactive: 95.3%
4,Cc1cc(C(=O)CSc2cccc[n+]2[O-])c(C)n1-c1ccc(Br)cc1,inconclusive: 108%
5,COC(=O)C(C)NC(=S)N1CCN(c2c(F)cc3c(=O)c(C(=O)O)cn(C4CC4)c3c2OC)CC1C (centres undefined),inconclusive: 173%
6,COc1cc(NC(=O)c2ccnn2C)c(OC)cc1Cl,inconclusive: 139%
7,Cc1cc(C(F)F)n2nc(C(=O)Nc3cccc(C(F)(F)F)c3)nc2n1,inactive: 96.3%
8,O=C(Nc1nc(-c2ccccc2)cs1)c1ccc(=O)[nH]c1,inconclusive: 95.8%
9,CC(OC(=O)c1ccc2ccccc2n1)C(=O)c1ccccc1 (centres undefined),inactive: 104%
10,CCN1/C(=C/c2cc[n+](CCCS(=O)(=O)[O-])c3ccccc23)Sc2ccccc21,inconclusive: 102%
11,COC(=O)c1ccc(CSc2nnc3n(Cc4ccccc4OC)c(=O)c4ccccc4n23)o1,inactive: 99.1%
12,CCOc1cc(/C=N/NC(=O)c2cccnc2)ccc1O,inconclusive: 101%
13,O=C(NC(=O)N1CCCCC1)c1ccccc1,inconclusive: 108%
14,COc1ccc(-n2c(SCC(=O)NCC3CCCO3)nc3ccccc32)cc1 (centres undefined),inactive: 99.5%
15,CSc1nnnn1-c1c(C)cc(C)cc1C,inconclusive: 102%
16,COc1cccc(CN2CCN(Cc3nc(C(C)C)cs3)CC2CCO)c1 (centres undefined),inactive: 102%
17,O=S(=O)(c1cc(Cl)sc1Cl)N1CCCC1,inconclusive: 41.6%
18,COCCNC(=O)CSc1nc2cc(OC)c(OC)cc2c(=O)n1CCC1=CCCCC1,inactive: 109%
19,CN(C)c1nc(N)nc(Cn2nnc(-c3ccc(C(F)(F)F)cc3)n2)n1,inconclusive: 96.9%
20,COc1ccc2c(c1)c(C(=O)N/N=C/c1ccc(Cl)cc1)c(C)n2C,inconclusive: 122%
21,O=S1(=O)CC2NC(=S)N(c3cccc(Br)c3)C2C1 (centres undefined),inconclusive: 91.9%
22,O=[N+]([O-])c1cccc(/C=N/N2CCN(Cc3ccc(Cl)cc3)CC2)c1,inconclusive: 69.8%
23,CC(=O)NC1(c2ccc(F)cc2)CCN(C(=O)Nc2ccc(F)cc2F)CC1,inactive: 99%

row,Compound,binding response (% of control)
1,O=C1NC(c2cccc([N+](=O)[O-])c2)=CCN1c1ccccc1O,inconclusive: 155%
2,CN1CCN(CCC(=O)N/N=C/C=C2\N(C)c3ccccc3C2(C)C)CC1,inconclusive: 101%
3,CS(=O)(=O)Nc1ccccc1NS(C)(=O)=O,inconclusive: 86.8%
4,Cc1cc(-c2nc(C)c(C(=O)NNC(=O)NC(C)C)s2)no1,inconclusive: 108%
5,Cc1nc(SCC(=O)c2ccccc2)[nH]c(=O)c1Oc1ccc(Cl)cc1,inconclusive: 107%
6,O=C(NCCCO)NC(=S)c1cccc2ccccc12,inconclusive: 106%
7,COc1ccc(CC(=O)N2CCCc3ccccc32)cc1OC,inactive: 101%
8,C/C=C(/C)C(=O)Nc1cccc(C2=NOC3(C2)C[C@@H](C(N)=O)N(C(=O)/C=C/CC)C3)c1 (some centres undefined),inconclusive: 107%
9,Nc1ccccc1C(=O)NCCN1CCNC1=O,inconclusive: 198%
10,Cc1nn(-c2ccccc2)c(C)c1/C=N/NC(=O)CSc1nnc(SCc2ccc(Cl)cc2)s1,active: 157% [activator]
11,CN1C(C(=O)NCc2cccc(Br)c2)CC2Cn3c(nc4cc5ccccc5cc43)C21 (centres undefined),inconclusive: 80.8%
12,COCC(C)OC(=O)c1c(N)n(-c2ccc(OC)c(OC)c2)c2nc3ccccc3nc12 (centres undefined),inconclusive: 102%
13,CCCOc1ccc(N2C(=O)CC(N(CCCO)C(=O)CC)C2=O)cc1 (centres undefined),inconclusive: 94.4%
14,Cc1ccc(NS(=O)(=O)c2ccc(Br)s2)nc1,inactive: 96.6%
15,O=C(Nc1ccc2c(c1)oc1ccc(S(=O)(=O)N3CCCC3)cc12)C1CC1,inactive: 103%
16,CC(=O)N1CCN(C(=S)Nc2ccc(SC(F)F)cc2)CC1,inconclusive: 127%
17,CCn1c(SCC(=O)c2ccccc2)nc2sc3c(c2c1=O)CCN(C)C3,inconclusive: 110%
18,CC(=O)Nc1ccc(C(=O)OCC(=O)Nc2c(F)cccc2F)cc1,inconclusive: 92.9%
19,O=C(OCC(=O)N1CCCC1=O)C1COc2ccccc2O1 (centres undefined),inconclusive: 96.2%
20,C/C(=N/NC(=O)CN1CCN(S(=O)(=O)c2ccc(C)cc2)CC1)c1cccc(O)c1,inconclusive: 63.3%
21,O=C1NC(NS(=O)(=O)c2ccc(Cl)cc2)(C(F)(F)F)C(=O)N1CCc1ccccc1 (centres undefined),inconclusive: 99.3%
22,COc1ccc(-c2cc(CNS(=O)(=O)c3ccc(F)cc3)on2)cc1,inconclusive: 83.7%
23,COC(=O)CCCC1=CC2=CC(=O)C(C)(OC(=O)CCc3ccccc3)C(=O)C2=CO1 (centres undefined),inconclusive: 100%

# Fetched one by one from the entries so far:
row,Compound,binding response (% of control)
12,CCOc1cc(/C=N/NC(=O)c2cccnc2)ccc1O,inconclusive: 101%
9,Nc1ccccc1C(=O)NCCN1CCNC1=O,inconclusive: 198%
20,C/C(=N/NC(=O)CN1CCN(S(=O)(=O)c2ccc(C)cc2)CC1)c1cccc(O)c1,inconclusive: 63.3%
13,CCCOc1ccc(N2C(=O)CC(N(CCCO)C(=O)CC)C2=O)cc1 (centres undefined),inconclusive: 94.4%

# (continued)

row,Compound,binding response (% of control)
1,CCn1nc(C)c(CN2CCc3c([nH]c4ccccc34)C2c2ccc(F)c(OC)c2)c1C (centres undefined),inactive: 118%
2,O=C(COc1cccc2cccnc12)N/N=C/c1ccccc1O,inconclusive: 113%
3,Cc1cc(C)n(CC(=O)O)c(=O)c1[N+](=O)[O-],inconclusive: 94.2%
4,CCCn1c(SCC(=O)NC2CCCC2)nnc1-c1ccccn1,inconclusive: 79.4%
5,O=C(Cn1cc2c(n1)CCCCC2)Nc1ccccc1Cl,inconclusive: 99.2%
6,COc1cc(OC)c2c(C)cc(=O)oc2c1C(CCN1CCN(c2ccccc2)CC1)c1ccc2c(c1)OCO2 (centres undefined),inconclusive: 128%
7,CC(C)(C)c1ccc(Oc2ccc(NC(=O)c3cccs3)cn2)cc1,inconclusive: 97.4%
8,O=S1(=O)NC(=NCCc2ccccn2)c2ccccc21,inconclusive: 89.9%
9,CC(=O)N[C@@H](C)C(=O)N1CCN(S(=O)(=O)c2ccc(Cl)cc2)CC1,inconclusive: 113%
10,COc1ccc(NC(=S)NNC(=O)CNc2ccc(Cl)cc2)cc1,inconclusive: 96.6%
11,O=C(/C=C/c1cccc([N+](=O)[O-])c1)N(c1ccccn1)c1ccccn1,inconclusive: 78.9%
12,COc1ccc(CSc2nc3ccccc3c(=O)n2CCCN2CCOCC2)cc1F,inconclusive: 111%
13,NC(=O)Nc1ccc(F)cc1,inactive: 103%
14,S=C1NCN(Cc2ccco2)CN1,inconclusive: 102%
15,CC1CC(=O)Nc2ccccc2N1S(=O)(=O)c1ccc(Cl)cc1 (centres undefined),inconclusive: 53.6%
16,O=c1c(-c2ccc(Cl)cc2)[n+]([O-])c2ccccc2n1OCc1nc2ccccc2[nH]1,inconclusive: 63.2%
17,CCNC(=O)Cn1c(=O)c(=O)n(Cc2ccccc2)c2ccc(Cl)cc21,active: 171% [activator]
18,Cn1c(=O)n(Cc2ccco2)c(=N)c2c3c(sc21)CCCC3,inconclusive: 113%
19,COc1ccc(NC(=O)c2cc(CN3C(=O)c4ccccc4C3=O)ccc2OC)cn1,inactive: 100%
20,CN(C)N=Nc1nc2c([nH]1)c(=O)n(C)c(=O)n2C,inconclusive: 99.8%
